Reference: article PMC5579575, “Study of Alzheimer’s Disease-Related Biophysical Kinetics with a Microslit-Embedded Cantilever Sensor in a Liquid Environment” (Sensors (Basel, Switzerland), 2017)

Test system: Aβ oligomeric intermediates (seeds) immobilized on Au surface
Assay: Topographic analysis (AFM) of Aβ aggregation on seed-immobilized Au surface

| Substance | surface roughness (seed-only surface (no monomer added)) [nm] | observed structures on surface (seeds solely immobilized (Figure 5b)) | surface roughness (100 ng/mL monomeric Aβ added to seed-immobilized surface) [nm] | surface roughness (1 μg/mL monomeric Aβ added to seed-immobilized surface) [nm] | length of aggregates (10 μg/mL Aβ42 added to seed-immobilized surface (Figure 5e)) [nm] | surface roughness (10 μg/mL monomeric Aβ added to seed-immobilized surface) [nm] | observed structures on surface (Aβ42 100 ng/mL and 1 μg/mL added to seed-immobilized surface (Figure 5c,d)) |
| --- | --- | --- | --- | --- | --- | --- | --- |
| oligomeric seeds: heterogeneous oligomeric intermediates prepared from Aβ42 peptide incubated without agitation at 37 °C for 48 h | 0.7341 | sub-nm-sized particles were distributed | – | – | – | – | – |
| Aβ42: synthetic Aβ42 peptide, which has an identical sequence of 42-residue amino acids associated with human AD (Sigma-Aldrich) | – | – | 1.413 | 2.224 | > 100 | 4.694 | oligomeric structures with length of tens of nanometers were observed |
